These results are taken from the supplement of paper PMC8104966.

Structures are written as SMILES. The list shows a part of the results. This data set is noisy: repeats of one test often differ as much as different tests do.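 Fusion between ACE2-bearing and full-length-spike-bearing U2OS cells was measured by imaging as the percentage of nuclei with both cell types' fluorescent markers. An inhibitory hit is a non-toxic compound whose fusion z-score is below -3, more than three standard deviations beneath the plate's DMSO wells.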

The assay deals with U2OS ACE2 x SARS-CoV-2 spike co-culture. Description: cell-cell fusion (fraction fused) z-score vs plate DMSO control; higher = more fusion. Conditions: 30 µM; 5 h; toxicity class: non-toxic, passed QC.
On to `Nc1cc(-c2ccncc2)c[nH]c1=O`, for which the “cell-cell fusion (z-score)” value was inactive: 2.85.

Regarding `CN1CC(=O)N=C1NC(=O)Nc1cccc(Cl)c1` [Fenobam], the “cell-cell fusion (z-score)” value is inactive: 2.64.

For the compound `CC(C)c1cc(C(C)C)c(CC(=O)NS(=O)(=O)Oc2c(C(C)C)cccc2C(C)C)c(C(C)C)c1` [Avasimibe], the “cell-cell fusion (z-score)” value is inactive: 3.28.

For the compound `COc1cc2c(cc1OC)C1(O)C(=O)c3ccc(O)c(C(=O)O)c3OC1CO2` (centres undefined), the “cell-cell fusion (z-score)” value was inactive: 1.35.

Regarding `Cl.NNCc1ccccc1`, the “cell-cell fusion (z-score)” value was inactive: 1.98.

For `CN1CCC(OC(c2ccccc2)c2ccccc2)CC1.Cl` [Diphenylpyraline hydrochloride], the “cell-cell fusion (z-score)” value was inactive: 2.43.

Regarding `CC1(C)O[C@@H]2[C@@H](CO[C@@]3(COS(N)(=O)=O)OC(C)(C)O[C@@H]23)O1`, the “cell-cell fusion (z-score)” value is inactive: 0.619.

With `Cl.Cl.NCCc1c[nH]cn1` [Histamine dihydrochloride], the “cell-cell fusion (z-score)” value was inactive: 2.72.

With `Cl.Cl.NCCc1c[nH]cn1`, the “cell-cell fusion (z-score)” value is inactive: -1.68.

`NC(=O)c1cc([N+](=O)[O-])cc([N+](=O)[O-])c1`: the “cell-cell fusion (z-score)” value was inactive: 1.23.

Take `NC[C@H](O)c1ccc(O)c(O)c1.O.O=C(O)C(O)C(O)C(=O)O` [Noradrenaline bitartrate]: the “cell-cell fusion (z-score)” value is inactive: -0.819.

In the case of `Cc1cc([C@@H]2CCCN2C)on1.Cl` [ABT-418 hydrochloride], the “cell-cell fusion (z-score)” value was inactive: 0.843.

`Nc1nc(Cl)nc2c1ncn2[C@H]1C[C@H](O)[C@@H](CO)O1` [Cladribine]: the “cell-cell fusion (z-score)” value is inactive: 0.0845.

In the case of `C=CCCCCCCCCCCCc1ccco1`, the “cell-cell fusion (z-score)” value is inactive: 1.82.

Turning to `Nc1c2ccccc2nc2ccccc12`, the “cell-cell fusion (z-score)” value was inactive: 0.441.

Regarding `COc1ccc(CCNc2nc(N3CCc4cc(OC)c(OC)cc4C3)c3cc(OC)c(OC)cc3n2)cc1OC.Cl`, the “cell-cell fusion (z-score)” value was inactive: -2.49.

Consider `CC1=C(/C=C/C(C)=C/C=C/C(C)=C\C(=O)O)C(C)(C)CCC1` [Isotretinoin], for which the “cell-cell fusion (z-score)” value is inactive: 3.54.

Turning to `C=C1C[C@@H]2[C@@H](CC[C@@]3(C)C(=O)CC[C@@H]23)[C@@]2(C)C=CC(=O)C=C12` [Exemestane], the “cell-cell fusion (z-score)” value is inactive: 2.38.

As to `CC1(C)O[C@]2(C)CC[C@H]1CC2`, the “cell-cell fusion (z-score)” value is inactive: -0.887.

Turning to `CC(=O)Oc1ccccc1C(=O)O` [Aspirin], the “cell-cell fusion (z-score)” value is inactive: 3.71.

In the case of `Cl.OC(CCN1CCCCC1)(c1ccccc1)C1CCCCC1` (racemic) [DL-trihexyphenidyl hydrochloride], the “cell-cell fusion (z-score)” value is inactive: 2.48.

Turning to `Cn1c(=O)[nH]c(=O)c2nc[nH]c21`, the “cell-cell fusion (z-score)” value is inactive: 4.47.

In the case of `CN1CCC(=C2c3ccccc3C=Cc3ccccc32)CC1.Cl`, the “cell-cell fusion (z-score)” value was inactive: 2.57.

Consider `CN1CCC(=C2c3ccccc3C=Cc3ccccc32)CC1.Cl` [Cyproheptadine hydrochloride], for which the “cell-cell fusion (z-score)” value is inactive: 2.87.

Take `COCC(=O)O[C@]1(CCN(C)CCCc2nc3ccccc3[nH]2)CCc2cc(F)ccc2[C@@H]1C(C)C.Cl.Cl` [Mibefradil dihydrochloride]: the “cell-cell fusion (z-score)” value was inactive: -0.44.

`CCOC(N)=O`: the “cell-cell fusion (z-score)” value was inactive: 2.09.

`CN(C)CCCN1c2ccccc2Sc2ccccc21.Cl`: the “cell-cell fusion (z-score)” value was inactive: -0.115.

Consider `Nc1cc(C(Cl)=C(Cl)Cl)c(S(N)(=O)=O)cc1S(N)(=O)=O`, for which the “cell-cell fusion (z-score)” value was inactive: 1.82.

With `O.O=c1ccc2cc(O[C@@H]3O[C@H](CO)[C@@H](O)[C@H](O)[C@H]3O)c(O)cc2o1`, the “cell-cell fusion (z-score)” value is inactive: 1.75.

For `Cc1c(O)c(O)cc2c1CC=C1[C@@]2(C)CC[C@@]2(C)C3C[C@](C)(C(=O)O)CC[C@]3(C)CC[C@]12C` (some centres undefined), the “cell-cell fusion (z-score)” value is inactive: 2.11.

Turning to `C=CC1=C(C)/C(=C/c2[nH]c(Cc3[nH]c(/C=C4\NC(=O)C(C)=C4C=C)c(C)c3CCC(=O)O)c(CCC(=O)O)c2C)NC1=O`, the “cell-cell fusion (z-score)” value is inactive: 2.53.

With `CC(C)(CCP(=O)(O)O)C(=O)O.Cl` [(S)-MAP4 hydrochloride], the “cell-cell fusion (z-score)” value was inactive: 1.57.

Consider `C[C@H](N)C(=O)O` [alanine], for which the “cell-cell fusion (z-score)” value is inactive: 1.85.

As to `CC(=O)Nc1ccc(S(=O)(=O)c2ccc(NC(C)=O)cc2)cc1`, the “cell-cell fusion (z-score)” value is inactive: 1.97.

Take `O=C(NC1CCNCC1)c1n[nH]cc1NC(=O)c1c(Cl)cccc1Cl`: the “cell-cell fusion (z-score)” value is inactive: 1.15.

On to `O=C(O)CCC(=O)O.O=C(O[C@H]1CN2CCC1CC2)N1CCc2ccccc2[C@@H]1c1ccccc1` [Solifenacin succinate], for which the “cell-cell fusion (z-score)” value is inactive: 0.59.

Consider `O=c1ccc2ccc(O)cc2o1`, for which the “cell-cell fusion (z-score)” value was inactive: 3.98.

For the compound `O=C(O)/C=C\C(=O)O.O=C(O)/C=C\C(=O)O.c1cc(CN2CCCCC2)cc(OCCCNc2nc3ccccc3s2)c1`, the “cell-cell fusion (z-score)” value was active: -7.37.

In the case of `O=C(O[C@@H]1Cc2c(O)cc(O)cc2O[C@@H]1c1ccc(O)c(O)c1)c1cc(O)c(O)c(O)c1`, the “cell-cell fusion (z-score)” value is inactive: 3.59.
